For 28 substances, Colorectal and Melanoma results are on record in patent US20190374627A1, “TARGET PEPTIDES FOR CANCER THERAPY AND DIAGNOSTICS” (priority 2016, published 2019).

Data set [1] concerns colorectal cancer. Briefly: Presence of the phosphopeptide in previously analyzed colorectal cancer samples. Set-up: key: The presence of phosphopeptides in previously analyzed samples including leukemia, colorectal cancer, melanoma, ovarian cancer, breast cancer, and esophageal cancer is indicated by ✓.
Data set [2] has as its system melanoma. As to the kind of experiment: Presence of the phosphopeptide in previously analyzed melanoma samples. Set-up: key: The presence of phosphopeptides in previously analyzed samples including leukemia, colorectal cancer, melanoma, ovarian cancer, breast cancer, and esophageal cancer is indicated by ✓.

As for “100 (KPRPPPLSP; (8)...(8) The amino acid at this position is optionally phosphorylated; listed as Homo sapiens) [compound 100]”, the Colorectal entry in data set [1] was “✓”. In addition, in data set [2], the Melanoma result is on record as “✓”.

With “121 (RKLSVILIL; (4)...(4) The amino acid at this position is optionally phosphorylated; listed as Homo sapiens) [compound 121]”, the Colorectal result in data set [1] is “✓”. Further, the Melanoma result in data set [2] is listed as “✓”.

For “145 (RPKSVDFDSL; (4)...(4) The amino acid at this position is optionally phosphorylated; listed as Homo sapiens) [compound 145]”, the Colorectal entry in data set [1] was “✓”. The Melanoma result in data set [2] was “✓”.

As to “170 (RPRSISVEEF; (4)...(4) The amino acid at this position is optionally phosphorylated; listed as Homo sapiens) [compound 170]”, the Colorectal entry in data set [1] was “✓”. In addition, in data set [2], the Melanoma result is recorded as “✓”.

As to “178 (RPRSPPPRAP; (4)...(4) The amino acid at this position is optionally phosphorylated; listed as Homo sapiens) [compound 178]”, the Colorectal entry in data set [1] is “✓”. Moreover, the Melanoma entry in data set [2] was “✓”.

“184 (RPRSPTGPSNSF; (6)...(6) The amino acid at this position is optionally phosphorylated; listed as Homo sapiens) [compound 184]”: in data set [1], the Colorectal entry is on record as “✓”. In data set [2], the Melanoma result is listed as “✓”.

Consider “235 (KRFSFKKSF; (4)...(4) The amino acid at this position is optionally phosphorylated; listed as Homo sapiens) [compound 235]”, for which the Colorectal entry in data set [1] was “✓”. Also, in data set [2], the Melanoma entry is reported as “✓”.

In the case of “236 (KRFSGTVRL; (4)...(4) The amino acid at this position is optionally phosphorylated; listed as Homo sapiens) [compound 236]”, the Colorectal entry in data set [1] was “✓”. Also, the Melanoma entry in data set [2] is “✓”.

Regarding “240 (KRMSPKPEL; (4)...(4) The amino acid at this position is optionally phosphorylated; listed as Homo sapiens) [compound 240]”, in data set [1], the Colorectal result is reported as “✓”. The Melanoma entry in data set [2] is “✓”.

“263 (RRLSADIRL; (4)...(4) The amino acid at this position is optionally phosphorylated; listed as Homo sapiens) [compound 263]”: the Colorectal result in data set [1] was “✓”. Besides, the Melanoma result in data set [2] was “✓”.

Regarding “277 (RRSSFLQVF; (4)...(4) The amino acid at this position is optionally phosphorylated; listed as Homo sapiens) [compound 277]”, in data set [1], the Colorectal result is recorded as “✓”. The Melanoma result in data set [2] is given as “✓”.

In the case of “310 (KMPTTPVKAK; (5)...(5) The amino acid at this position is optionally phosphorylated; listed as Homo sapiens) [compound 310]”, in data set [1], the Colorectal result was “✓”. Further, in data set [2], the Melanoma entry is on record as “✓”.

Regarding “313 (KVQSLRRAL; (4)...(4) The amino acid at this position is optionally phosphorylated; listed as Homo sapiens) [compound 313]”, the Colorectal entry in data set [1] is “✓”. In addition, the Melanoma entry in data set [2] is recorded as “✓”.

As to “317 (RIYQYIQ; (5)...(5) The amino acid at this position is optionally phosphorylated; listed as Homo sapiens) [compound 317]”, the Colorectal result in data set [1] is “✓”. The Melanoma result in data set [2] is “✓”.

Turning to “318 (RIYQYIQSR; (5)...(5) The amino acid at this position is optionally phosphorylated; listed as Homo sapiens) [compound 318]”, the Colorectal result in data set [1] is on record as “✓”. Besides, the Melanoma entry in data set [2] was “✓”.

Take “319 (RIYQYIQSRF; (5)...(5) The amino acid at this position is optionally phosphorylated; listed as Homo sapiens) [compound 319]”: in data set [1], the Colorectal entry is listed as “✓”. Besides, the Melanoma entry in data set [2] is recorded as “✓”.

Consider “325 (RSYSRSFSR; (4)...(4) The amino acid at this position is optionally phosphorylated; listed as Homo sapiens) [compound 325]”, for which the Melanoma entry in data set [2] is “✓”.

As to “326 (RSYSYPRQK; (4)...(4) The amino acid at this position is optionally phosphorylated; listed as Homo sapiens) [compound 326]”, the Melanoma result in data set [2] is “✓”.

Turning to “327 (RTASFAVRK; (4)...(4) The amino acid at this position is optionally phosphorylated; listed as Homo sapiens) [compound 327]”, the Melanoma entry in data set [2] was “✓”.

As to “330 (RVASPTSGVK; (4)...(4) The amino acid at this position is optionally phosphorylated; listed as Homo sapiens) [compound 330]”, the Colorectal entry in data set [1] is “✓”. Moreover, the Melanoma result in data set [2] is given as “✓”.

For “331 (RVKTPTSQSYR; (4)...(4) The amino acid at this position is optionally phosphorylated; listed as Homo sapiens) [compound 331]”, the Melanoma entry in data set [2] is recorded as “✓”.

Consider “332 (RVLSPLIIK; (4)...(4) The amino acid at this position is optionally phosphorylated; listed as Homo sapiens) [compound 332]”, for which, in data set [1], the Colorectal result was “✓”. In addition, the Melanoma result in data set [2] is on record as “✓”.

On to “333 (RVRQSPLATR; (5)...(5) The amino acid at this position is optionally phosphorylated; listed as Homo sapiens) [compound 333]”, for which, in data set [1], the Colorectal result is “✓”. In data set [2], the Melanoma result was “✓”.

As for “335 (SVKSPVTVK; (4)...(4) The amino acid at this position is optionally phosphorylated; listed as Homo sapiens) [compound 335]”, the Colorectal entry in data set [1] is “✓”. Besides, the Melanoma result in data set [2] was “✓”.

With “337 (YIQSRF; (1)...(1) The amino acid at this position is optionally phosphorylated; listed as Homo sapiens) [compound 337]”, in data set [2], the Melanoma entry is reported as “✓”.

Take “341 (ATAGPRLGW; (2)...(2) The amino acid at this position is optionally phosphorylated; listed as Homo sapiens) [compound 341]”: the Melanoma entry in data set [2] is given as “✓”.

As to “366 (RQKSPLFQF; (4)...(4) The amino acid at this position is optionally phosphorylated; listed as Homo sapiens) [compound 366]”, in data set [2], the Melanoma result is recorded as “✓”.

Regarding “378 (RRPSYRKIL; (4)...(4) The amino acid at this position is optionally phosphorylated; listed as Homo sapiens) [compound 378]”, in data set [2], the Melanoma result is “✓”.
